Hit rate of the full screen: of about 320,000 compounds, about 2,100 (0.66%) were called active. The shares of active, inactive and inconclusive entries below differ from those in the screen. Calls come from the whole dose curve; as a rule, active = well fitted inhibition curve with a large enough effect in the signal ratio, with a control signal flat (not every such curve was filed as active); inconclusive = small, poorly fitted or top-dose-only effect, or effect the other way, or a change in a side signal; inactive = flat fitted curve, though single readings scatter; the % refers to the signal ratio. A potency beside an inconclusive call is a rough fit, not a confirmed value.
Assay: qHTS Assay for Lipid Storage Modulators in Drosophila S3 Cells
Details: BODIPY lipid droplet fluorescence, 18-24 h, cells fed with added oleic acid; lipid storage change, negative = inhibition: at 46.1 µM (top of the series) unless noted
In short: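 Drosophila S3 cells loaded with oleic acid (400 uM, as added) and compounds at several concentrations; lipid droplets imaged by 488-nm laser-scanning cytometry, 500–530 nm intensity and object ratio to cell channel. Percent activity normalized to 20 uM Triacsin C.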
% is set by controls: 0 for no effect and ±100 for the full control effect; potency is the fitted concentration of half-maximal effect.

SMILES	lipid storage change, negative = inhibition	Potency
CCOc1ccccc1N(CC(=O)Nc1c(C)n(C)n(-c2ccccc2)c1=O)S(=O)(=O)c1ccccc1	inconclusive: 4.32%	
CCOc1ccc(/C=C2\CCc3ccccc3C2=O)cc1	inconclusive: 80.6%	
COc1ccc2nc(NNC(=O)C3COc4ccccc4O3)sc2c1 (stereo not given)		inconclusive: 4.11 µM [activator, partial curve, poor fit]
Cc1nc(NCC2CCCO2)c2nnn(Cc3ccccc3)c2n1 (stereo not given)	inconclusive: 5.91%	
O=C(NCCC1=CCCCC1)C1CCC(=O)N(Cc2cccc(C(F)(F)F)c2)C1 (stereo not given)		inconclusive: 29.1 µM [falling, partial curve]
O=C(N/N=C/C=C/c1ccco1)c1cccc([N+](=O)[O-])c1	inconclusive: -10.8%	
COc1ccc(CCC(=O)NNC(=S)Nc2cccc(C(C)=O)c2)cc1	inconclusive: 6.14%	
COC(=O)Cc1ccc(NC(=S)NC2CC2)cc1	inconclusive: -12.3%	
Cc1ccccc1CS(=O)(=O)Cc1ccc(C(=O)N2CCOCC2)o1	inconclusive: 41.7%	
CCCCOC(=O)Nc1ccc(S(=O)(=O)Nc2ncccn2)cc1	inconclusive: -32.3%	
CC(CC1CC(C)(C)OC1=O)C(=O)Nc1nncs1 (stereo not given)		inconclusive: 18.4 µM [falling, partial curve]
OC(c1ccccc1)c1cccnc1 (stereo not given)	inconclusive: 3.31%	
COCCn1c(C)cc(/C=C(\C#N)C(=O)OCC(=O)Nc2ccc(S(N)(=O)=O)cc2)c1C	inconclusive	
Nc1ccccc1C(=O)N=Nc1[nH]c(N)c2ccccc12	inconclusive: 90%	
Cc1csc(NC(=O)c2ccc(COc3ccccc3)o2)n1		inconclusive: 0.0651 µM [falling, full curve, poor fit]
Cc1cc(C(=O)CN2C(=O)NC3(CCC(C)CC3)C2=O)c(C)n1C (stereo not given)	inconclusive: 24.4% [at 9.22 µM]	
CCN(CC)C(=O)c1cc2c(=O)n3cccc(C)c3nc2n1C		inconclusive: 1.3 µM [activator, partial curve]
COc1cc2c(cc1OC)CN(c1ccc([N+](=O)[O-])cc1C#N)CC2		inconclusive: 13 µM [activator, partial curve]
O=C(CSc1nnc(Cc2cc(=O)[nH]c(=O)[nH]2)n1-c1ccccc1)N1CCCCC1	inconclusive: 2.63% [at 9.22 µM]	
Cc1ccc(Nc2nc3nonc3[nH]c2=O)cc1C	inconclusive: -75.7%	
CCN(Cc1ccncc1)C(=O)c1ccccc1NS(=O)(=O)c1ccc(Br)cc1		inconclusive: 0.0046 µM [activator, full curve, poor fit]
Cc1nn(CC(=O)NCCc2ccc(Cl)cc2Cl)c(C)c1[N+](=O)[O-]	inconclusive: -36%	
NC(=O)c1ccc(Oc2ccc(-c3nnco3)cc2)c([N+](=O)[O-])c1	inactive	
C#CCn1c(=NC(=O)CN2C(=O)CCC2=O)sc2cccc(C)c21	inconclusive: -3.07%	
Cc1cc(/C=C2\SC(=S)N(C)C2=O)c(C)n1-c1cccc(O)c1	inconclusive: -18.3%	

SMILES	lipid storage change, negative = inhibition	Potency
CCOc1cc(-c2nc(-c3ccc(C)nc3OC)no2)cc(OCC)c1OCC	inconclusive: -1.97%	
CN1CCN(CCNC(=O)c2ccc3nc(-c4ccc(F)cc4)c(-c4ccc(F)cc4)nc3c2)CC1	inconclusive: -8.13%	
NCC(=O)Nc1ccc(Cl)cc1C(=O)c1ccc[nH]1		inconclusive: 6.51 µM [activator, partial curve, poor fit]
Cc1cccc(-c2nnc3n2N=C(c2ccccc2)CS3)c1	inconclusive: -47.4%	
CCOc1ccc2nc(N3CCC(C(=O)N4CCN(C5CCCCC5)CC4)CC3)sc2c1	inconclusive: -28.3%	
CCC(CC)NC(=O)C1CC(=O)N(CCc2ccc(F)cc2)C1 (stereo not given)	inactive	
COc1cccc(COC(=O)C2CCN(S(=O)(=O)c3cccs3)CC2)c1OC	inconclusive	
Cc1ccsc1/C=N/N=C1\C(=O)Nc2ccccc21		inconclusive: 5.8 µM [activator, full curve]
CCOc1ccc(C(=O)NCC(=O)Nc2ccc3c(c2)OCO3)cc1OCC	inconclusive	
Cc1ccc(-c2csc(NC(=O)CSc3nnc4c(n3)[nH]c3ccccc34)n2)cc1		inconclusive: 29.1 µM [cytotoxic, single point]
Cc1ccn2c(-c3csc(NCc4ccccc4)n3)c(C)nc2c1		inconclusive: 23.1 µM [falling, single point]
Cc1cccc(OCC(=O)N/N=C/c2cccn2C)c1	inconclusive: 14%	
Cc1nnsc1C(=O)NCc1c(F)cccc1Cl	inconclusive: 1.44%	
O=c1[nH]cnc2c1C1(CCCC1)Cc1ccccc1-2	inconclusive: -43.3%	
CCCCOC(=O)C1CCCC(C)N1 (stereo not given)		inconclusive: 1.84 µM [falling, full curve]
CC(=O)c1c(C)[nH]c(C(=O)CSc2nc3ccccc3n2C)c1C	inconclusive: -18.7%	
CCCN(c1ccc(C(=O)OC)cc1)S(=O)(=O)c1ccccc1	inconclusive: 11.1%	
CN(C(=O)CCc1nc2ccccc2c(=O)[nH]1)C1CCS(=O)(=O)C1 (stereo not given)		inconclusive: 0.0731 µM [activator, full curve, poor fit]
CCN(CC)Cc1ccc(OC)c(Cl)c1	inconclusive: -19.5%	
CCOc1ccccc1N1CCN(S(=O)(=O)c2ccc3c4c(cccc24)C(=O)N3)CC1		inconclusive: 4.61 µM [activator, full curve]
CCn1c(C)c(C)c2cc(C(=O)NC3CCCCCC3)ccc21		inconclusive: 23.1 µM [falling, single point]
O=S(=O)(c1cccs1)N1CCC2(CC1)OCCN2S(=O)(=O)c1ccccc1		inconclusive: 18.4 µM [activator, partial curve]
O=C(COC(=O)c1cccc(S(=O)(=O)Nc2ccc(F)cc2)c1)NCCN1C(=O)CSC1=O	inconclusive	
O=C(CCCCCn1c(=O)[nH]c2ccsc2c1=O)NCc1cccs1	inconclusive: 85.8%	
O=C(O)c1sc2ncccc2c1OCc1ccccc1	inconclusive: 15.8%	

Looked up above.
Cc1nnsc1C(=O)NCc1c(F)cccc1Cl | lipid storage change, negative = inhibition: inconclusive: 1.44%
OC(c1ccccc1)c1cccnc1 (stereo not given) | lipid storage change, negative = inhibition: inconclusive: 3.31%

Reference: PubChem BioAssay AID2685 (National Center for Advancing Translational Sciences (NCATS), 2010)
